Results on 51 sequences are retold here after the supplement of paper PMC7877785.

A short description of this data set: self-splicing fitness, log relative to wild type (ln ratio); higher = more splicing; Tetrahymena group I intron in knt gene, E. coli kanamycin selection, DiMSum; sequences stand for … in CUCUCU…GGAGGGAAAAGUUAUCAGGCAUGCACCUGGUAGCUAGUCUUUAAACCAAUAGAUUGCAUCGGUUUAAAAGGCAAGACCGUCAAAUUGCGGGAAAGGGGUCAACAGCCGUUCAGUACCAAGUCUCAGGGGAAACUUUGAGAUGGCCUUGCAAAGGGUAUGGUAAUAAGCUGACGGACAUGGUCCUAACCACGCAGCCAAGUCCUAAGUCAACAGAUCUUCUGUUGAUAUGGAUGCAGUUCACAGACUAAAUGUCGGUCGGGGAAGAUGUAUUCUUCUCAUAAGAUAUAGUCGGACCUCUCCUUAAUGGGAGCUAGCGGAUGAAGUGAUGCAACACUGGAGCCGCUGGGAACUAAUUUGUAUGCGAAAGUAUAUUGAUUAGUUUUGGAGUACUCGUGGUCG
Put shortly:
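DiMSum derived fitness as the error-weighted combination of fold changes across replicates, kanamycin versus no kanamycin, normalised to wild type. E. coli BL21(DE3) held the library, which randomised all eight P1ex-region intron nucleotides within the knt kanamycin-resistance gene on pET-22b(+). Six replicate transformations grew overnight at 37°C or 30°C on LB agar with or without 25 μg/mL kanamycin, also containing 100 μg/mL carbenicillin, 50 μM IPTG and 0.2% rhamnose, and pooled colonies were amplicon-sequenced on an Illumina HiSeq 2500.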

± gives the uncertainty stated by the source. The uncertainty is large for many entries.

As for GAGGAGCAAUAUUACGGUAG, the “self-splicing fitness (ln)” value was -4.41 ± 0.6 (30 °C) and -3.48 ± 0.59 (37 °C). Turning to CAGGAGCAAUAUUACGUGGC, the “self-splicing fitness (ln)” value (30 °C) is -4.94 ± 1. Same read-out and setting: next, CUAGAGCAAUAUUACGGGGU: -4.73 ± 0.59; GAUAAGCAAUAUUACGCCGC: -3.54 ± 0.73. Same read-out and setting: as for AGUAAGCAAUAUUACGUCGC, the figure is -3.27 ± 1.1; as for AUCGAGCAAUAUUACGCUGA, -3.47 ± 0.76. For the sequence CAAAAGCAAUAUUACGCUUA, the “self-splicing fitness (ln)” value runs as follows: (30 °C) -3.17 ± 0.23; (37 °C) -2.17 ± 0.15. GAUGAGCAAUAUUACGUAUG: the “self-splicing fitness (ln)” value (30 °C) is -4.97 ± 0.51.

CGACAGCAAUAUUACGCCAC: where the note is “30 °C”, the “self-splicing fitness (ln)” value is -2.95 ± 1.1. GCUGAGCAAUAUUACGGCUU: the “self-splicing fitness (ln)” value (37 °C) is -1.84 ± 0.52. In the case of AUAUAGCAAUAUUACGCUGC, under “30 °C”, the “self-splicing fitness (ln)” value is -4.32 ± 1. The same measure, in the same setting: next, AAGGAGCAAUAUUACGACGG: -3.96 ± 1. For GGUGAGCAAUAUUACGAGCU, the “self-splicing fitness (ln)” value (30 °C) is -1.32 ± 1.4. As for UUUUAGCAAUAUUACGGCAC, the “self-splicing fitness (ln)” value is -2.85 ± 0.62 (30 °C) and -0.642 ± 0.28 (37 °C). On the same counts, the results for CGCGAGCAAUAUUACGCCGA are -2.95 ± 0.75 and -2.65 ± 0.53. On the same counts, the results for AGUCAGCAAUAUUACGGUGA are -1.87 ± 0.12 and -0.192 ± 0.096. Regarding AUCUAGCAAUAUUACGACUC, for the setting “37 °C”, the “self-splicing fitness (ln)” value was -0.731 ± 0.52.

With CAUGAGCAAUAUUACGUUCC, for the setting “30 °C”, the “self-splicing fitness (ln)” value was -1.38 ± 0.52. Same read-out and setting: as for CUUUAGCAAUAUUACGUAAA, the figure is -5.09 ± 1. CGUUAGCAAUAUUACGUCUU: the “self-splicing fitness (ln)” value is -4.03 ± 0.26 (30 °C) and -1.29 ± 0.099 (37 °C). For ACGGAGCAAUAUUACGCCAU, the “self-splicing fitness (ln)” value (37 °C) is -3.69 ± 0.59.

For UUAUAGCAAUAUUACGGCCC, the “self-splicing fitness (ln)” value (30 °C) is -2.47 ± 0.78. As for UGAGAGCAAUAUUACGUUUA, the “self-splicing fitness (ln)” value (37 °C) was -2.54 ± 1.1. On to UUCUAGCAAUAUUACGCAAC, for which the “self-splicing fitness (ln)” value (37 °C) is -2.74 ± 0.75.

On to UCGUAGCAAUAUUACGCUGU, for which the “self-splicing fitness (ln)” value (30 °C) was -2.47 ± 0.66. Still for that read-out and setting: next, AACGAGCAAUAUUACGGUCC: -5.22 ± 1. As for UGAGAGCAAUAUUACGGAUU, the “self-splicing fitness (ln)” value (37 °C) is -2.37 ± 0.55. Consider UACUAGCAAUAUUACGAACC, for which the “self-splicing fitness (ln)” value (30 °C) is -3 ± 0.75.

On to UUAGAGCAAUAUUACGCCAU, for which the “self-splicing fitness (ln)” value (37 °C) was -1.47 ± 0.59. Same read-out and setting: as for CGGGAGCAAUAUUACGUAAA, the figure is -2.13 ± 0.58.

As to GGCGAGCAAUAUUACGCAUU, the “self-splicing fitness (ln)” value was -1.13 ± 0.11 (30 °C) and -0.998 ± 0.14 (37 °C).

Take GUCGAGCAAUAUUACGGCCU: the “self-splicing fitness (ln)” value (37 °C) is -2.23 ± 0.64. Turning to CGUUAGCAAUAUUACGCCGU, the “self-splicing fitness (ln)” value (30 °C) was -3.27 ± 0.76. Consider GGCGAGCAAUAUUACGCGAC, for which the “self-splicing fitness (ln)” value (37 °C) was -0.195 ± 0.56. UGUAAGCAAUAUUACGGAAU: the “self-splicing fitness (ln)” value (30 °C) was -4.13 ± 0.78.

Consider UCUGAGCAAUAUUACGCCUC, for which the “self-splicing fitness (ln)” value runs as follows: (30 °C) -2.94 ± 1.1; (37 °C) -0.681 ± 1. On the same counts, the results for CGUGAGCAAUAUUACGCCAG are -2.99 ± 0.52 and -0.958 ± 0.56.

For UCAAAGCAAUAUUACGCGCU, the “self-splicing fitness (ln)” value (30 °C) is -3.63 ± 0.47 and the “self-splicing fitness (ln)” value (37 °C) is -2.53 ± 0.45. On the same counts, the results for AGACAGCAAUAUUACGUAGU are -3.27 ± 0.1 and -1.88 ± 0.1. In the case of AGAUAGCAAUAUUACGUUUC, the “self-splicing fitness (ln)” value (37 °C) is -3.48 ± 0.52. AGUCAGCAAUAUUACGUUGC: under “30 °C”, the “self-splicing fitness (ln)” value was -3.46 ± 1.1. As for GGCCAGCAAUAUUACGCGGC, the “self-splicing fitness (ln)” value by setting is: (30 °C) -3.46 ± 0.24; (37 °C) -2.18 ± 0.51.

Take UAACAGCAAUAUUACGCAAC: the “self-splicing fitness (ln)” value runs as follows: (30 °C) -3.57 ± 0.73; (37 °C) -2.53 ± 0.54. As for CUAUAGCAAUAUUACGCCAA, the “self-splicing fitness (ln)” value (30 °C) was -3.24 ± 0.56. For UUGGAGCAAUAUUACGACGG, the “self-splicing fitness (ln)” value reads like this: (30 °C) 0.664 ± 0.22; (37 °C) -0.775 ± 0.29.

AGGGAGCAAUAUUACGUUCU: the “self-splicing fitness (ln)” value (37 °C) was -3.29 ± 0.73. Consider AAAUAGCAAUAUUACGUAUA, for which the “self-splicing fitness (ln)” value was -1.63 ± 0.12 (30 °C) and -0.558 ± 0.12 (37 °C). With UGUUAGCAAUAUUACGCUAA, the “self-splicing fitness (ln)” value (37 °C) is -2.74 ± 0.75. In the case of AGCCAGCAAUAUUACGAGGG, the “self-splicing fitness (ln)” value reads like this: (30 °C) -2.58 ± 0.15; (37 °C) -2.38 ± 0.17. On to GGGCAGCAAUAUUACGGGUA, for which the “self-splicing fitness (ln)” value (30 °C) is -2.25 ± 0.55.

For CCAGAGCAAUAUUACGAGCC, the “self-splicing fitness (ln)” value (30 °C) was -4.07 ± 0.72.
